PubChem BioAssay AID1259425 | University of Nebraska Medical Center, 2018
Test: 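Seek colon cancer weak points whose silencing resembles KSR1 loss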 (primary screen). Cells: HCT116 human colon cancer cells. Reagents: siRNA pool against human genes, 50 nM siRNA. Measurement: 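After 50 nM siRNA pool, branched-DNA assay measures six marker transcripts per well, minus blank, normalised to the geometric mean of two housekeeping transcripts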. Direction: BNIP3L mRNA: higher = more BNIP3L transcript after knockdown; NDRG1 mRNA: higher = more NDRG1 transcript after knockdown; BNIP3 mRNA: higher = more BNIP3 transcript after knockdown; ALDOC mRNA: higher = more ALDOC transcript after knockdown; ACSL5 mRNA: higher = more ACSL5 transcript after knockdown.
The whole screen tested about 14,000 reagents; shown is an unselected part. Reagents against one gene are numbered here. Some reagents were tested in more than one well and are listed for each. The record does not give: the time to read-out.

The opening 2 entries, ahead of the listing:
no.	target	pool no.	BNIP3L mRNA, set 1	NDRG1 mRNA, set 1	BNIP3 mRNA, set 1	ALDOC mRNA, set 1	ACSL5 mRNA, set 1
1	NFKBIE	1	0.0985	0.533	0.143	0.0183	0.126
2	CCN6	1	0.0406	0.135	0.237	0.0314	0.183

The list itself, repeating the preview:
no.	target	pool no.	BNIP3L mRNA, set 1	NDRG1 mRNA, set 1	BNIP3 mRNA, set 1	ALDOC mRNA, set 1	ACSL5 mRNA, set 1
1	NFKBIE	1	0.0985	0.533	0.143	0.0183	0.126
2	CCN6	1	0.0406	0.135	0.237	0.0314	0.183
3	ALDH18A1	1	0.0575	0.0639	0.193	0.00324	0.169
4	PIK3CG	1	0.138	0.19	0.442	0.0102	0.193
5	PIK3CG	1	0.205	0.29	0.308	0.0728	0.215
6	KLHL15	1	0.0937	0.23	0.441	0.0762	0.181
7	CLK3	1	0.0785	0.226	0.314	0.0116	0.306
8	CYP4F8	1	0.13	0.142	0.253	0.056	0.124
9	MICAL2	1	0.155	0.134	0.468	0.0297	0.139
10	MICAL2	2	0.139	0.138	0.29	0.0357	0.12
11	APLN	1	0.0724	0.173	0.21	0.0308	0.211
12	ICAM2	1	0.0981	0.126	0.238	0.0233	0.0628
13	ELAPOR1	1	0.128	0.411	0.279	0.0355	0.398
14	ERI3	1	0.0619	0.126	0.339	0.0179	0.0898
15	IL11RA	1	0.111	0.0952	0.294	0.0187	0.0936
16	ELOVL3	1	0.0814	0.205	0.276	0.0429	0.2
17	RORC	1	0.1	0.0805	0.169	0.0122	0.0873
18	TNIP3	1	0.12	0.151	0.396	0.0401	0.293
19	MMGT1	1	0.178	0.197	0.304	0.00859	0.163
20	SNX14	1	0.17	0.463	0.306	0.0711	0.253
21	CEBPA-DT	1	0.079	0.0623	0.268	0.0134	0.0842
22	HNMT	1	0.0739	0.0583	0.205	0.00839	0.0953
23	BIVM	1	0.0871	0.357	0.291	0.0432	0.15
24	PLA2G4A	1	0.0752	0.0554	0.257	0.0189	0.0722
25	PIGA	1	0.0708	0.143	0.265	0.0264	0.124
26	ST7L	1	0.257	0.306	0.57	0.0233	0.39
27	MAGED2	1	0.0591	0.226	0.22	0.0306	0.161
28	CBX2	1	0.104	0.476	0.223	0.0335	0.241
29	DLEU2	1	0.258	0.272	0.314	0.0763	0.189
30	TBC1D19	1	0.0671	0.106	0.244	0.0251	0.11
31	NPC1L1	1	0.0995	0.489	0.434	0.0564	0.188
32	KIDINS220	1	0.136	0.106	0.306	0.029	0.267
33	RHOT1	1	0.0893	0.328	0.316	0.0346	0.201
34	MIEF1	1	0.0758	0.144	0.287	0.0187	0.124
35	PHF12	1	0.17	0.191	0.478	0.0603	0.273
36	ALG5	1	0.111	0.143	0.543	0.0435	0.492
37	DNM1L	1	0.0577	0.162	0.391	0.0171	0.22
38	SPI1	1	0.141	0.331	0.618	0.0132	0.423
39	FASTKD2	1	0.137	0.635	0.13	0.0435	0.304
40	NIN	1	0.0634	0.376	0.29	0.0338	0.142
41	SSH3	1	0.113	0.239	0.298	0.0367	0.193
42	CDC42BPG	1	0.329	0.176	0.293	0.00914	0.385
43	ZNF589	1	0.103	0.113	0.493	0.0138	0.18
44	UBE2E1	1	0.0534	0.257	0.268	0.0329	0.278
45	MYL9	1	0.104	0.103	0.237	0.0157	0.179
46	PHAX	1	0.127	0.193	0.191	0.052	0.251
47	CLDN12	1	0.0972	0.213	0.338	0.0371	0.146
48	ITPK1	1	0.187	0.0905	0.328	0.0294	0.202
49	GSTM3	1	0.0649	0.184	0.246	0.0109	0.133
50	PSMG2	1	0.136	0.0746	0.478	0.0372	0.176
